In all, about 320,000 compounds went through this assay and about 22,000 (6.9%) were called active. The inconclusive results got no clear call from the source; some entries with a clear call stand among them for comparison. The call rests on the fitted dose curve; in most records, active means well fitted inhibition curve with a large enough effect; inconclusive means small, poorly fitted or top-dose-only effect, or another doubt; inactive means no such curve, though single readings can be large or run the other way. Potencies beside an inconclusive call are fits to weak or partial responses and may not hold up.
Assay: Primary qHTS for delayed death inhibitors of the malarial parasite plastid, 96 hour incubation
Details: P. falciparum luciferase reporter growth; series mostly up to 28.7 µM; activity change, negative = inhibition: at the top concentration
Method in brief: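 Readout is luminescence from an integrated firefly luciferase in P. falciparum. Red cells, 2% hematocrit and 0.05% parasitemia final, were cultured with compound through two parasite generations (96 hours) at 37 C, 5% CO2.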
On the % scale 0 is the no-effect control and ±100 the full control effect; potency means the concentration at half of the fitted maximal effect.

SMILES	activity change, negative = inhibition	Potency
CC(OC(=O)c1ccc(NS(=O)(=O)c2ccc3[nH]c(=O)[nH]c3c2)cc1)C(N)=O (stereo not given)	inactive: 36.1%	
COc1ccc(NC(=O)Nc2cccc3ccccc23)c(OC)c1		inconclusive: 18.5 µM [inhibitor, single point]
c1cnc2c(c1)ccc1cccnc12		active: 3.29 µM
Cc1ccc(/C=N/n2c(-c3ccccc3)n[nH]c2=S)cc1	inactive: 8.5%	
CC(=O)c1ccc(NC(=O)c2ccc(N3CCCC3=O)cc2)cc1	inactive: 1.61%	
COc1cccc(-c2noc(-c3ccc4c(c3)OCO4)n2)c1	inactive: 49.3%	
CCC(=O)Nc1cc(C(=O)O)ccc1Sc1ccccc1		inconclusive: 0.0026 µM [inhibitor, full curve, poor fit]
CCOc1ccc(S(=O)(=O)NC(C)C)cc1C(N)=O		inconclusive: 16.5 µM [inhibitor, single point]
O=S(=O)(NCCc1ccccc1)c1ccc(Br)cc1		active: 13.1 µM
Cc1ccc(-n2nc(C)c(C(=O)Nc3cccc(C(=O)NC4CC4)c3)n2)c(C)c1		active: 14.7 µM
CCCc1n(CC(O)COCC2CC=CCC2)c2ccccc2[n+]1C (stereo not given)	inactive: 35.1%	
CCCN(C(=O)COC(=O)c1cc(CC)c(C)s1)c1c(N)n(Cc2ccccc2)c(=O)[nH]c1=O		inconclusive: 9.28 µM [inhibitor, single point]
CCc1nnc(NC(=O)[C@@H]2CCCN2S(=O)(=O)c2ccc3c(c2)OCCO3)s1		inconclusive: 20.8 µM [inhibitor, partial curve, poor fit]
CN1CCN(c2ccc(NC(=O)c3ccc4c(c3)OCCO4)cc2)CC1	inactive: -2.98%	
O=C(Nc1ccccc1N1CCN(C(=O)c2ccc(Cl)cc2)CC1)c1cc(Br)ccc1Cl		active: 4.65 µM
Cc1cc(NC(=O)CSc2nc3ccccc3c(=O)n2Cc2ccccc2)no1		inconclusive: 8.28 µM [inhibitor, single point]
COc1ccccc1N=Nc1nc(-c2ccccc2)c(-c2ccccc2)[nH]1		active: 2.33 µM
COc1ccc(Cl)cc1C(=O)Nc1ccc(NC(=O)c2ccco2)cc1		active: 2.08 µM
COc1ccc2nc3ccccc3nc2c1N	inactive: 39.4%	
Cn1c(CN2CCN(C(=O)c3ccc(F)cc3)CC2)nc2cc([N+](=O)[O-])ccc21		active: 13.1 µM
CCOc1ccc(Br)cc1/C=N/O	inactive: 11.9%	
O=C(N/N=C/c1ccc(OC(F)F)cc1OC(F)F)NC1CCCCC1		inconclusive: 18.5 µM [inhibitor, single point]
O=C(C1CC1)N1CCc2sccc2C1c1ccc(Cl)cc1 (stereo not given)		inconclusive: 9.28 µM [inhibitor, partial curve, poor fit]
CCOc1ccc(C2=Nn3c(nnc3-c3ccccc3OC)SC2)cc1		inconclusive: 16.5 µM [inhibitor, partial curve, poor fit]
CCc1cc2c(=O)c(-n3cnc4ccccc43)coc2cc1O		inconclusive: 10.4 µM [inhibitor, single point]

Looked up by compound from the entries so far (four):
SMILES	activity change, negative = inhibition	Potency
O=C(Nc1ccccc1N1CCN(C(=O)c2ccc(Cl)cc2)CC1)c1cc(Br)ccc1Cl		active: 4.65 µM
COc1cccc(-c2noc(-c3ccc4c(c3)OCO4)n2)c1	inactive: 49.3%	
CCc1nnc(NC(=O)[C@@H]2CCCN2S(=O)(=O)c2ccc3c(c2)OCCO3)s1		inconclusive: 20.8 µM [inhibitor, partial curve, poor fit]
c1cnc2c(c1)ccc1cccnc12		active: 3.29 µM

Filtered by structure: those above with a Cl atom (3)
SMILES	activity change, negative = inhibition	Potency
O=C(Nc1ccccc1N1CCN(C(=O)c2ccc(Cl)cc2)CC1)c1cc(Br)ccc1Cl		active: 4.65 µM
COc1ccc(Cl)cc1C(=O)Nc1ccc(NC(=O)c2ccco2)cc1		active: 2.08 µM
O=C(C1CC1)N1CCc2sccc2C1c1ccc(Cl)cc1 (stereo not given)		inconclusive: 9.28 µM [inhibitor, partial curve, poor fit]

The list continues:

SMILES	activity change, negative = inhibition	Potency
Cc1ccc(C)n1NC(=O)c1ccccc1O		active: 9.28 µM
COc1ccc(C2=NN(S(C)(=O)=O)C(c3cccs3)C2)cc1OC (stereo not given)		inconclusive: 0.928 µM [inhibitor, partial curve]
O=C(Nc1ccc(F)cc1F)NC1CCN(Cc2c(F)cccc2Cl)CC1		inconclusive: 18.5 µM [inhibitor, single point]
CC(C)(C)c1ccc(C(=O)NNC(=O)c2ccc(Cl)cc2)cc1		inconclusive: 18.5 µM [inhibitor, single point]
CC(C)C(=O)N1CCN(c2cc(N3CCN(C)CC3)c(F)cc2[N+](=O)[O-])CC1		inconclusive: 2.62 µM [inhibitor, full curve, poor fit]
CCOc1ccc(-n2c(C)cc(/C=N/Nc3nc(C)cc(=O)[nH]3)c2C)cc1		inconclusive: 5.22 µM [inhibitor, single point]
Cc1ccc(/C=C/c2nc3sc(C(=O)O)c(C)c3c(=O)[nH]2)cc1[N+](=O)[O-]		inconclusive: 18.5 µM [inhibitor, single point]
Cc1cccc(/C=N/n2c(C)nc3ccccc3c2=O)c1	inactive: 50.5%	
Cc1ccccc1C(=O)NCC(=O)NNC(=O)c1cccc(Cl)c1		inconclusive: 0.0657 µM [inhibitor, full curve, poor fit]
C(=C\c1ccccc1)/CSc1nc2ncccc2[nH]1		inconclusive: 18.5 µM [inhibitor, single point]
Cc1c(C(=O)Nc2c(F)cccc2F)sc2ncn(CC(=O)N3CCCCC3)c(=O)c12		inconclusive: 18.5 µM [inhibitor, single point]
O=C(NC(Cc1ccccc1)c1ccc2c(c1)OCCCO2)c1ccccc1F (stereo not given)		inconclusive: 0.0033 µM [inhibitor, full curve, poor fit]
COc1cc(C(=O)N/C(=C/c2ccc(F)cc2)C(=O)NC(C(=O)O)c2ccccc2)cc(OC)c1OC (stereo not given)		inconclusive: 20.8 µM [inhibitor, partial curve, poor fit]
O=C(Nc1ccc(S(=O)(=O)N2CCCCC2)cc1)c1cnccn1		inconclusive: 1.17 µM [inhibitor, full curve, poor fit]
COC(=O)C1C(=O)C=C(Nc2ccc(F)cc2F)CC1c1ccc(OC)cc1 (stereo not given)	inactive: -4.79%	
COc1ccccc1C(=O)C1CCCN(C(=O)CSc2ccccn2)C1 (stereo not given)		active: 10.4 µM
COC(=O)c1ccc(NC(=S)NC2CC3CCC2C3)cc1 (stereo not given)	inactive: 5.3%	
Cc1ccc2c(CSc3nc4nc(C)cc(C)n4n3)cc(=O)oc2c1		inconclusive: 5.22 µM [inhibitor, partial curve, poor fit]
Fc1ccccc1NC(=S)N1CCN(c2ccccn2)CC1	inactive: -5.66%	
COc1ccc(C(=O)Nc2cccc(-c3ccc(N4CCOCC4)nn3)c2)cc1OC		inconclusive: 18.5 µM [inhibitor, single point]
O=C(COc1ccc(Cl)cc1)Nc1ccc2c(c1)nc1n2CCOC1		inconclusive: 9.28 µM [inhibitor, partial curve, poor fit]
Cc1noc(NS(=O)(=O)c2ccc(NC(=O)Nc3ccc(Cl)c(Cl)c3)cc2)c1C		inconclusive: 18.5 µM [inhibitor, single point]
COC(=O)/C=C1\N/C(=N\c2nc(C)cc(C)n2)N(c2ccc(Cl)cc2)C1=O		inconclusive: 18.5 µM [inhibitor, single point]
Cc1ccccc1NC(=O)NC1(C(=O)NCc2ccco2)CCCCC1	inactive: 0%	
CN1C(C(=O)NCc2ccco2)=CC(c2ccc(F)cc2)=NS1(=O)=O	inactive: 6.3%	

SMILES	activity change, negative = inhibition	Potency
COc1ccc(NC(=O)CN2C(=O)COc3ccccc32)cc1OC	inactive: 93.1%	
COc1ccc(S(=O)(=O)NC(CC(=O)NCc2ccco2)C(C)C)cc1 (stereo not given)		inconclusive: 1.47 µM [inhibitor, partial curve]
Cc1ccc(S(=O)(=O)N2CCN(C(=O)c3ccc(-n4cncn4)c([N+](=O)[O-])c3)CC2)cc1C		active: 7.38 µM
O=C(Cc1ccc2c(c1)OCCO2)Nc1ccc(Cl)c(S(=O)(=O)N2CCOCC2)c1		active: 9.28 µM
Cc1ccccc1SCC(=O)OCC(=O)Nc1sccc1C(N)=O	inactive: -18.9%	
O=C(NCC1CCCO1)c1ccc(NS(=O)(=O)c2ccccc2)cc1 (stereo not given)	inactive: 8.82%	
COc1ccc(C2C=C(C)Nc3nc(SC)nn32)cc1 (stereo not given)		inconclusive: 1.17 µM [inhibitor, partial curve]
Nc1ccc2nc(SCC(=O)N3CCOCC3)sc2c1	inactive: 24.8%	
CC12CCCCC1NS(=O)(=O)OC2 (stereo not given)		inconclusive: 1.04 µM [inhibitor, partial curve, poor fit]
COc1cccc(N2CCN(C3CC(=O)N(c4cccc(Cl)c4)C3=O)CC2)c1 (stereo not given)	inactive: -2.52%	
COC(=O)c1sc(NC(=S)NC(=O)c2ccc(F)cc2)nc1C		inconclusive: 11.7 µM [inhibitor, partial curve, poor fit]
CCCCCCc1ccc(-c2ncc(N)cn2)cc1	inactive: 237%	
Cc1nnc(N2C(=O)C(O)=C(C(=O)c3ccco3)C2c2cccc([N+](=O)[O-])c2)s1 (stereo not given)		inconclusive: 10.4 µM [inhibitor, partial curve, poor fit]
CC(C)(C)c1ccc(/C=C/C(=O)N2CCOCC2)cc1	inactive: 55.8%	
COc1ccccc1C(=O)C1CCCN(C(=O)c2cccnc2SC)C1 (stereo not given)	inactive: 67.5%	
O=C(c1ccccc1)c1nccc2ccccc12	inactive: 30.2%	
Cc1c(C(=O)Nc2nc(-c3ccccn3)cs2)oc2ccccc12		inconclusive: 10.4 µM [inhibitor, partial curve, poor fit]
CCCOc1ccc(C(=O)Nc2ccc(S(=O)(=O)Nc3onc(C)c3C)cc2)cc1		inconclusive: 18.5 µM [inhibitor, single point]
Oc1c(/C=N/Nc2cccc3cccnc23)ccc2ccccc12	inactive: 9.32%	
CNC(=O)C12N=CNN=C1N(C)C(=O)N2C (stereo not given)		inconclusive: 10.4 µM [inhibitor, partial curve, poor fit]
CCOc1cccc(OCCOc2ccccc2[N+](=O)[O-])c1		inconclusive: 5.22 µM [inhibitor, partial curve]
CCc1cc2c3c(c(=O)oc2cc1OC(C)C(=O)O)CCCC3 (stereo not given)		inconclusive: 2.62 µM [inhibitor, single point]
CCCCCCC(O)(c1ccc(OC)cc1)C(CN1CCOCC1)c1ccccc1 (stereo not given)		active: 10.4 µM
COc1ccccc1OCCCn1cc(C(=O)C2CC2)c2ccccc21		inconclusive: 11.7 µM [inhibitor, single point]
CCC(C)NC(=O)C1c2ccccc2C(=O)N1Cc1ccc(F)cc1 (stereo not given)	inactive: -15%	

From PubChem BioAssay AID504834 (National Center for Advancing Translational Sciences (NCATS), 2011)
